Assay results: the supplement of paper PMC11006884
The targets with a hit were mostly taken out for another list; the other results follow. This is a noisy data set. Only a part is listed here, and it is no random draw.

The chains behind the UniProt entries cited, without tags or fusion partners. Where a name states a change or a piece, a line headed by the entry shows the natural chain unless it says otherwise.
UniProt Q15061: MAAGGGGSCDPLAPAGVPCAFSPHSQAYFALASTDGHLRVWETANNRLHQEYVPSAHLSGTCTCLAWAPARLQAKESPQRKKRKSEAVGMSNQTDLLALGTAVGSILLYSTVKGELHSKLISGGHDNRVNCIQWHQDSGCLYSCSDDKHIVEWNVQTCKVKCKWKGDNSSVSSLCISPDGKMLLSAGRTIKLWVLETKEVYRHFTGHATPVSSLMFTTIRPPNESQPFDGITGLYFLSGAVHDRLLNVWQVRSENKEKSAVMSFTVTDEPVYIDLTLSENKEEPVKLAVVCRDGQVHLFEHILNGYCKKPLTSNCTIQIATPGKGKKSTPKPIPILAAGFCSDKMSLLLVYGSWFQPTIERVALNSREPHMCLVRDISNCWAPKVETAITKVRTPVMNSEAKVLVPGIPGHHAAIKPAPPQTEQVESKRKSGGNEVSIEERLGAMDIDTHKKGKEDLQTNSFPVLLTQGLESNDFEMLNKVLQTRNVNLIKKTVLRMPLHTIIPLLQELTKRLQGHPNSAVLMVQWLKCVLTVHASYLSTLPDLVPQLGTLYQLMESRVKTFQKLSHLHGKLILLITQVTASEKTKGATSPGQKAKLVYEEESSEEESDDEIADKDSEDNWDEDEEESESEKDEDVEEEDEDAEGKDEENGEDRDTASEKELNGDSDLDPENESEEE
UniProt Q15042: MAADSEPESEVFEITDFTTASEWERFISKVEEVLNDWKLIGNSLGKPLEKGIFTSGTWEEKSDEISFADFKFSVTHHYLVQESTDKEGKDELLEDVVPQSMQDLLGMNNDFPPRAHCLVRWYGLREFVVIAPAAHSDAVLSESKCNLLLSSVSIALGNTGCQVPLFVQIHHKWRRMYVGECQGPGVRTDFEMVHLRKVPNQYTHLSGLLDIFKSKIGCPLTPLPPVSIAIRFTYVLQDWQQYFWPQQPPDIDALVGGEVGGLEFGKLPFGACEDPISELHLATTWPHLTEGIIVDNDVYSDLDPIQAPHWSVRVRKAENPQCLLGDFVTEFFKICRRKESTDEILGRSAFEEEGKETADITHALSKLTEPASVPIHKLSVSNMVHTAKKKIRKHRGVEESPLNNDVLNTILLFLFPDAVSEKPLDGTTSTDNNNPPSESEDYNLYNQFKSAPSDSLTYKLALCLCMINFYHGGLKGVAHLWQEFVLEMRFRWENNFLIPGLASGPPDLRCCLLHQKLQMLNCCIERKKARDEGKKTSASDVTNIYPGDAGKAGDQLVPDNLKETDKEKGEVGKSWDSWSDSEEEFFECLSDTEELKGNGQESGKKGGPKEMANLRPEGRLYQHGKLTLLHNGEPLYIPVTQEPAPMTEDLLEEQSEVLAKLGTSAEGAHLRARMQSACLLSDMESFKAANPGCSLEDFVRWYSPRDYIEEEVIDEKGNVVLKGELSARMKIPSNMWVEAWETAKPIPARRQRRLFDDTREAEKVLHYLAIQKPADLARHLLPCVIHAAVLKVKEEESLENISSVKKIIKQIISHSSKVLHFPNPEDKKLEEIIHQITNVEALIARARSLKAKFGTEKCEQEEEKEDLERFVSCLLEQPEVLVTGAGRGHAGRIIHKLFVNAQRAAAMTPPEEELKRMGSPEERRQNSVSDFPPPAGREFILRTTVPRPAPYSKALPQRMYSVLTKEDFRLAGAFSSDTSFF
UniProt Q15048: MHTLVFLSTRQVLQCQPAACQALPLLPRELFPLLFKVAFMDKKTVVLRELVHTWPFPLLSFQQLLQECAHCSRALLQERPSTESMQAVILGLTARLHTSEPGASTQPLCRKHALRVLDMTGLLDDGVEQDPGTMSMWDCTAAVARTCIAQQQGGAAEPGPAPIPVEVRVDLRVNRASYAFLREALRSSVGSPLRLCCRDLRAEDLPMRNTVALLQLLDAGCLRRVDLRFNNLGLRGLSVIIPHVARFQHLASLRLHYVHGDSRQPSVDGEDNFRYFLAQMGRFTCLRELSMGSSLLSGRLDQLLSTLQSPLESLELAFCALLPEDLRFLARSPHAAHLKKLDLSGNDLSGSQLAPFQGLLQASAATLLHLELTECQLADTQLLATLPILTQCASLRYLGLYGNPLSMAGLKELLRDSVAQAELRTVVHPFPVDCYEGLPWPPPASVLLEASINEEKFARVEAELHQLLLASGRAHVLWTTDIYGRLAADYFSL
UniProt Q16543: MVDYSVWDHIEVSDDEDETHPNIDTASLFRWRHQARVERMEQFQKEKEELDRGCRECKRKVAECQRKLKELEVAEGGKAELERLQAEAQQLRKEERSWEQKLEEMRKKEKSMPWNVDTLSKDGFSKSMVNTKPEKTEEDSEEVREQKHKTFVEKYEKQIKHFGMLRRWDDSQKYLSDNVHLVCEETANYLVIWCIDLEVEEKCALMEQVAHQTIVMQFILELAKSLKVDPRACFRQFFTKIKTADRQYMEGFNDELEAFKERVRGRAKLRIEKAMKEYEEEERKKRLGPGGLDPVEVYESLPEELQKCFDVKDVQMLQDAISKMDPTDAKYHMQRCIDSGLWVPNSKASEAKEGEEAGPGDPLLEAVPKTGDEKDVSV
UniProt Q15398: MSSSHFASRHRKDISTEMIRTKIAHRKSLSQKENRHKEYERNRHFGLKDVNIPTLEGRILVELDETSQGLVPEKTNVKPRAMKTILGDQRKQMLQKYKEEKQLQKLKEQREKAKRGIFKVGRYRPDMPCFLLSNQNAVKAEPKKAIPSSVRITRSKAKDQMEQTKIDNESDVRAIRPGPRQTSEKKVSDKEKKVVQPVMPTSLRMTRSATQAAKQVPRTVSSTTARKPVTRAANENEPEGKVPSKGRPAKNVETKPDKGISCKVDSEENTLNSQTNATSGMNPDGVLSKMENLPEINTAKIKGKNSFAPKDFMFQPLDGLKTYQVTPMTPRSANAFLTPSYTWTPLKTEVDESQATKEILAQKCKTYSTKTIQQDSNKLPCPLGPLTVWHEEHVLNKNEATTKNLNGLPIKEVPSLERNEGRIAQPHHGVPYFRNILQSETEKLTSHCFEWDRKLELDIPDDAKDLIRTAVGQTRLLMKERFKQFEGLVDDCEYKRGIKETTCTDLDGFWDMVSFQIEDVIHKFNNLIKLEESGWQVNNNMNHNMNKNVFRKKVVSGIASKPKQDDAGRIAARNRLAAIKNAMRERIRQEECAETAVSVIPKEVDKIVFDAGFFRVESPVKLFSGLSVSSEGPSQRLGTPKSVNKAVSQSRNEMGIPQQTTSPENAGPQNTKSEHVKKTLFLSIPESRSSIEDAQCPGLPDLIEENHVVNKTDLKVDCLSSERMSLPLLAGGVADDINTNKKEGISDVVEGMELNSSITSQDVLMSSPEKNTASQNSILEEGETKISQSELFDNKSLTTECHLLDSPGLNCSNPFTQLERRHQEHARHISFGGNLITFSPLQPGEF
UniProt Q16774: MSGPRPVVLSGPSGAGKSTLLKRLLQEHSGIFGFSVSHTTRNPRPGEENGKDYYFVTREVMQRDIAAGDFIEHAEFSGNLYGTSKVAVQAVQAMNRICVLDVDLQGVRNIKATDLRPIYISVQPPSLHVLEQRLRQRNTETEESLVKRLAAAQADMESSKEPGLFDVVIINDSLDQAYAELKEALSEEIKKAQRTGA
UniProt Q16512: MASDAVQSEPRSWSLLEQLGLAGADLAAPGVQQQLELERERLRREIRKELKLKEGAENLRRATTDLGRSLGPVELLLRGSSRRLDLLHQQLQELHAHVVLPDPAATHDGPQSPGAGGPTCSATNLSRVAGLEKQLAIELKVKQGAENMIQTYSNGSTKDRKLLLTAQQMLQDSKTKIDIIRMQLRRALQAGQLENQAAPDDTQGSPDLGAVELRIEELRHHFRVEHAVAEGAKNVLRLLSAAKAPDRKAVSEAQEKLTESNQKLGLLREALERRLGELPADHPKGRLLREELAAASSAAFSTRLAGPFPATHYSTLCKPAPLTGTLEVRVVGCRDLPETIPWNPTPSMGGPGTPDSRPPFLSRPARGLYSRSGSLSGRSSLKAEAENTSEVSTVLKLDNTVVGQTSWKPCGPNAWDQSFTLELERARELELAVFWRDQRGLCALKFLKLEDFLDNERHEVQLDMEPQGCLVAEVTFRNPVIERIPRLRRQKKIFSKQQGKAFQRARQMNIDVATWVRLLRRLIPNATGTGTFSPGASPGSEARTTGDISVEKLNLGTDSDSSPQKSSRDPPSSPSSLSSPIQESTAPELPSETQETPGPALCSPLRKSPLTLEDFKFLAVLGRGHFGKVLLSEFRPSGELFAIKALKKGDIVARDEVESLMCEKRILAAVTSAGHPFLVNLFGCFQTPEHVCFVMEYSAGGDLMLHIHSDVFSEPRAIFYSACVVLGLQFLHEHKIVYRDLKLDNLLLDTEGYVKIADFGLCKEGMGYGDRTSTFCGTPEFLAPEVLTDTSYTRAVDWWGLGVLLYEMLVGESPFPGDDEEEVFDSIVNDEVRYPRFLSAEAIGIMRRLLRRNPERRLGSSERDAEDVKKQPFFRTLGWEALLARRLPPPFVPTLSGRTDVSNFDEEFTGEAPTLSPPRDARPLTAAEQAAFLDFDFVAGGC
UniProt Q49AM1: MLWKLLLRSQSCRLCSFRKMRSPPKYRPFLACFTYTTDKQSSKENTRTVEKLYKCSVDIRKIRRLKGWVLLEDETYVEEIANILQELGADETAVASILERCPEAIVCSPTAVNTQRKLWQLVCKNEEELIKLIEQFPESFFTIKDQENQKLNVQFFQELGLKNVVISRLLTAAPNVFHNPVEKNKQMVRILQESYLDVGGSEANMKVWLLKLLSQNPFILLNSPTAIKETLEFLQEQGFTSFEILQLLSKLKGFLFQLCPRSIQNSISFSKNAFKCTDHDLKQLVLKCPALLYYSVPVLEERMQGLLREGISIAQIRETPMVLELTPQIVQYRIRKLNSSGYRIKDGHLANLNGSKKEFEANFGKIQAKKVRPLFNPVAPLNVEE
UniProt Q15029: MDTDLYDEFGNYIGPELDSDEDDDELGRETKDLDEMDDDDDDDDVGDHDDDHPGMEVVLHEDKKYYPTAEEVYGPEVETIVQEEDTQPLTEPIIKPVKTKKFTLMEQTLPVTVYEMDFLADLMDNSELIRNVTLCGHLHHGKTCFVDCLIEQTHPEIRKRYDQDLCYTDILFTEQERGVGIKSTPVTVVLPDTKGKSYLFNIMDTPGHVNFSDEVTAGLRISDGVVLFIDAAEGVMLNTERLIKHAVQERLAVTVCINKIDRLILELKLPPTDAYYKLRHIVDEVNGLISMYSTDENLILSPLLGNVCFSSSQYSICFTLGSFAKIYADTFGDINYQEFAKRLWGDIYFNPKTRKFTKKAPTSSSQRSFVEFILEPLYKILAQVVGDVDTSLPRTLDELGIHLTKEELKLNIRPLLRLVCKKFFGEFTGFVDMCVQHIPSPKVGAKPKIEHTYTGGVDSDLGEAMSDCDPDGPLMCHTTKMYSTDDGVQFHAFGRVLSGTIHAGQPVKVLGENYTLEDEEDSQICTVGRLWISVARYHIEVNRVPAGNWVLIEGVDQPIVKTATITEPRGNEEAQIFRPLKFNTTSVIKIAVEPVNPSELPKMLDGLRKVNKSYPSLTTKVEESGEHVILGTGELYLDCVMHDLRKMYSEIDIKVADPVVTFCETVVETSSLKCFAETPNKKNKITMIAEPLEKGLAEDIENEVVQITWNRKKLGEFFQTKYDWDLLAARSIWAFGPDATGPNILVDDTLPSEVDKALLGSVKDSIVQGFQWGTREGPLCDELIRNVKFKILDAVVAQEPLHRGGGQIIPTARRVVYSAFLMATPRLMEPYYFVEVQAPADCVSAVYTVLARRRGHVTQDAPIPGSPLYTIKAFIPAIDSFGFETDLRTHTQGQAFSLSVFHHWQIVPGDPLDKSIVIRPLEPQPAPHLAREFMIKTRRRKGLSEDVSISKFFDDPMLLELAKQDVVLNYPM
UniProt Q15532, whole entry: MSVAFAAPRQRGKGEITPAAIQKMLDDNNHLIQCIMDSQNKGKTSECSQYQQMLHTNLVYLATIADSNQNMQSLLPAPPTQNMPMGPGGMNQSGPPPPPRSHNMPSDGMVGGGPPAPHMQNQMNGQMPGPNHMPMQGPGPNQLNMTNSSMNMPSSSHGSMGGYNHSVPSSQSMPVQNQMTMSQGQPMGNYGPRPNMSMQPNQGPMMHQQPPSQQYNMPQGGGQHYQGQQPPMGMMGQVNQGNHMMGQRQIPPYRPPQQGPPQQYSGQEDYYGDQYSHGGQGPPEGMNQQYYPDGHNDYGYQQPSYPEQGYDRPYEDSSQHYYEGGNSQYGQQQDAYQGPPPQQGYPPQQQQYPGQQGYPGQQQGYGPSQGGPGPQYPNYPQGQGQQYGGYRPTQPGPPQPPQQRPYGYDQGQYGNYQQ
UniProt Q16514: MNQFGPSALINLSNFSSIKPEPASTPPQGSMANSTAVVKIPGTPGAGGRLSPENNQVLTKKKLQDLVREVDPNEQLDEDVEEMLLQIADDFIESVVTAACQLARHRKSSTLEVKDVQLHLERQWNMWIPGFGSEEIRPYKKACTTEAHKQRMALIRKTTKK

Compound: COC(=O)/C=C/c1ccccc1 [methyl cinnamate]
Assay: log2 ratio of iodoacetamide-alkyne labeling of the cysteine site, DMSO over compound (competition); higher = stronger covalent engagement of the cysteine by the compound, active = 1 or more
Details: 500 µM; treatment time 1 h; system: HEK293T cell lysate
How it was run: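 Reporter intensities give each cysteine's log2 competition ratio as the mean of control channels over the mean of compound channels. The samples were HEK293T lysate (2 mg/mL) given vehicle or electrophile (500 µM, 1 h, ambient temperature), then iodoacetamide alkyne (1 h), followed by click coupling to sCIP-TMT reagents, pooling, trypsin digestion overnight at 37 °C, streptavidin enrichment, acid elution, Orbitrap Eclipse LC-MS/MS with FAIMS and FragPipe quantification. Duplicate channels and three replicates were run, and cysteines quantified in only one replicate were discarded.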

log2 ratio of iodoacetamide-alkyne labeling, inactive:
WDR43 C380 (UniProt Q15061) 0.175
TRIP6 C402 (UniProt Q15654) 0.115
TRIP6 C399 (UniProt Q15654) 0.115
UniProt Q15042_C873 0.0505
LRRC14 C15 (UniProt Q15048) 0.291
IAH1 C137 (UniProt Q2TAA2) -0.103
UniProt Q2M389_C936 0.212
SHB C392 (UniProt Q15464) 0.14
CDC37 C336 (UniProt Q16543) 0.217
LLGL1 C1059 (UniProt Q15334) 0.258
DLGAP5 C129 (UniProt Q15398) 0.255
GUK1 C98 (UniProt Q16774) -0.0425
UniProt Q16512_C120 0.00511
MAP7D1 C251 (UniProt Q3KQU3) 0.0544
PDK2 C45 (UniProt Q15119) 0.203
MTERF2 C288 (UniProt Q49AM1) -0.164
UniProt Q15365_C293 0.0149
UniProt Q1ED39_C172 0.245
EFTUD2 C639 (UniProt Q15029) 0.133
SF3A1 C244 (UniProt Q15459) 0.178
SS18 C34 (UniProt Q15532) 0.0882
TAF12 C143 (UniProt Q16514) 0.213

Quoted at random: 2 entries already listed
log2 ratio of iodoacetamide-alkyne labeling, inactive:
SS18 C34 (UniProt Q15532) 0.0882
SHB C392 (UniProt Q15464) 0.14
